# From article PMC10163288
# Some of the results follow.
# B1: il10ra_site1_normal_mot_HHH_b2_00475_000000107_0001_44_57_H_._HHH_b1_07089_af2_0001_0000300033_0000001_0 (protein)
# chain: SSSSDEEEVVELIFRAVRLIAQGNLEEAEELLKEAEKIARENNDEELERYVKIALHFVESHSSSS
# B2: il10ra_site1_sap_21_mot_HHH_b1_06789_af2_000000041_0001_1_20_H_._HHH_b1_07559_0001_0000100002_0000002_0_0001 (protein)
# chain: SSSSSDEEERRVEELIEELREIEDPHEAARLVIEALRLIFRLSDAELLHELWRAFKEVINSSSSS
# B3: il10ra_site1_normal_mot_e1dd4851c59bc1cdde016f988f6856bd_0001_1_000000200_0001_16_31_H_._HEEHE_0473_0001_0000300013_0000001_0 (protein)
# chain: DEEREVEQMLEFQARAAGVKSVEVTTENGQVTVTVENVSPRAQELIRAAVLRLEERGLNVSFETR
# B4: il10ra_site1_sap_19_mot_HHH_b2_01447_af2_000000258_0001_1_20_H_._HHH_b1_04981_af2_0001_0000300014_0000002_0_0001 (protein)
# chain: SSSSNDELNREAYRLSREAMKLSRRDPEEARELLEELLRELEELGNPILALNVEHVLRRLSSSSS
# B5: il10ra_site1_normal_mot_HHH_b1_02062_000000185_0001_1_20_H_._HHH_b1_06583_0001_0000300010_0000001_0_af2pred_0001 (protein)
# chain: SSSSSEELREAIEISRRIAELLADGDKEEAEELLERLKELAEKLKNPLLEFLLRLLERELNSSSS
# B6: il10ra_site1_normal_mot_HHH_b1_07380_000000129_0001_1_20_H_._HHH_b1_03356_0001_0000200015_0000001_0_af2pred_0001 (protein)
# chain: SSSSSKAEEVYRLSREAAELLADGNPEEARQVVEEALELAEELGNLVLRVIIEFLLEHIKSSSSS
# B7: il10ra_site1_normal_mot_HHH_b1_05056_000000217_0001_1_20_H_._HHH_b2_05694_0001_0000300014_0000001_0 (protein)
# chain: SSSSSSDAEEEVERLLEEAEHIEDPKEVIRLLLKATQLALHANDPELLQEVWEVVKRLSSSSSSS
# B8: il10ra_site1_normal_mot_HHH_b1_05329_000000008_0001_43_56_H_._ems_3hM_910_0001_0000300015_0000001_0 (protein)
# chain: SDEFEEHVKELVEEAKEAVEKNDEETVQKISHILWRLAMEAEDPEEVELASRAFIKVLRLQFKSS
# B9: il10ra_site1_normal_mot_HHH_b1_00999_000000080_0001_41_55_H_._HHH_b1_00228_0001_0000300024_0000001_0 (protein)
# chain: SSSSDVEEEVEELLEEAKEIPDPRELNEVLLRALRLALEASDQELLQLVWRVVKELGEKLSSSSS
# B10: il10ra_site1_normal_mot_HHH_b2_06786_000000018_0001_41_57_H_._HHH_b1_00123_0001_0000100002_0000001_0 (protein)
# chain: SSSSSDEEEERVEELIEELRKIEDPRKASRLVIEALRLIFELSDEELLHELWRAAREVIKSSSSS
# B11: il10ra_site1_normal_mot_HHH_b1_04940_000000219_0001_1_18_H_._HHH_b2_03338_0001_0000200015_0000002_0 (protein)
# chain: SSSSDEDERAVRRLLHAAKQIDDEEYVRLTLRFAKAIAESTNNDELKRLIEEVEEELKEKSSSSS
# B12: il10ra_site1_sap_20_mot_HHH_b1_02420_000000033_0001_20_36_H_._HHH_b2_03617_0001_0000100006_0000001_0_0001_af2pred_0001 (protein)
# chain: SSSSEEELVRFALRSIRLAEELGDEEKLRAALREIEVLAKYTNNPEAREVLEEARELVEEVLSSS
# B13: il10ra_site1_sap_23_mot_HHH_b1_03314_af2_000000278_0001_42_55_H_._HHH_b1_07930_af2_0001_0000100006_0000001_0_0001_af2pred_0001 (protein)
# chain: SSSSSDEEAEEEVERLLEEAKHVDDPEERLRLRLEAWRLAVEANDPELEELILEWTIRKRSSSSS
# B14: il10ra_site1_normal_mot_HHH_b2_07784_af2_000000103_0001_19_36_H_._HHH_b2_04966_0001_0000300045_0000002_0 (protein)
# chain: SSSSDEEYEAVKRLIEEIVEALRNNDEELVEELLEELRRLAEEINTPAAKWSLRALEKALNSSSS
# B15: il10ra_site1_normal_mot_HHH_b1_03333_000000091_0001_1_17_H_._HHH_b2_08349_af2_0001_0000500032_0000001_0 (protein)
# chain: SSSSNWYEEVKKAIEEASELLEKGNPEEAEEVLEEILEELERLGNVAALWSVEHLLRLIRQSSSS
# B16: il10ra_site1_sap_27_mot_9c3e5e2d2b9ffb70dc788f52fbfab6d5_0001_1_000000198_0001_1_14_H_._HHH_b1_06862_af2_0001_0000300024_0000001_0_0001_af2pred_0001 (protein)
# chain: SSSSSLEEILEEAEELARENNNATAEAILRYLKEAIERTGDPRAVENAEIVAEIAERAAKSSSSS
# B17: il10ra_site1_normal_mot_7f9b3cf633cfd27bca007b62ade1be3b_0001_1_000000138_0001_17_32_H_._HHH_b2_03161_0001_0000400011_0000002_0 (protein)
# chain: SSSSDLEEALRFLELSLRRAEELNDPEQIRAAALFLLNLAEEANDERIFEEAHEILEEVNSSSSS
# B18: il10ra_site1_sap_19_mot_HHH_b2_01447_af2_000000258_0001_1_20_H_._HHH_b1_08652_af2_0001_0000700021_0000001_0_0001 (protein)
# chain: SSSSSQEKTHAEAVLWFAEWTPNPDVAAKAAEFALEKAEELNDEELKERIRELLEELEKGSSSSS
# B19: il10ra_site1_normal_mot_HHH_b1_05056_000000217_0001_1_20_H_._HHH_b2_00128_0001_0000100005_0000001_0 (protein)
# chain: SSSSSDYEEEVEELLEEAERIENPEEAAEVLQRATRLALEAQDPELLQLVWRVVKEIAGSSSSSS
# B20: il10ra_site1_sap_21_mot_HHH_b1_07962_000000254_0001_41_55_H_._HHH_b2_07492_af2_0001_0000200005_0000002_0_0001_af2pred_dldesign_0_af2pred (protein)
# chain: SSSSSDLDALIKELASLSTKVSLETAARLFDTLVRAHQLRQAGKPEEAAALLEAALAEVRSSSSS
# B21: il10ra_site1_sap_22_mot_HHH_b2_04092_000000110_0001_42_56_H_._HHH_b2_08238_0001_0000500040_0000003_0_0001_af2pred_0001 (protein)
# chain: SSSSSDEEYREQVEELLEEAKHIPDPDERSYVLIRAFALATQGRDPELEKLVEEVIKELISSSSS
# B22: il10ra_site1_sap_14_mot_HHH_b2_04592_000000276_0001_41_54_H_._HHH_b2_03457_af2_0001_0000500035_0000002_0_0001 (protein)
# chain: SSSSDRYVKLTIKFAEALLEAGDPEAARALLRALLQALKELGNEELFKEVEEILEEVERRSSSSS
# B23: il10ra_site1_sap_21_mot_HHH_b2_00984_000000042_0001_1_20_H_._HHH_b1_03130_af2_0001_0000400023_0000002_0_0001_af2pred_0001 (protein)
# chain: SSSSSEEELREIFEEAEELIEEALRKKDPELRHRVFRLIRELAELGDPEAALRLSKLFNSGSSSS
# B24: il10ra_site1_normal_mot_HHH_b2_00943_af2_000000149_0001_1_17_H_._HHH_b1_03920_0001_0000300023_0000002_0 (protein)
# chain: SSSSTNIEFLARQVFKALENLLEAGDEEKIEEVLRILENLARIHNDELAEELLREIREKLSSSSS
# Target: il10ra, Q13651
# Assay: yeast display titration
row,Binder,apparent Kd
1,B1,inactive: no binding seen
2,B2,inactive: no binding seen
3,B3,inactive: no binding seen
4,B4,inactive: no binding seen
5,B5,inactive: no binding seen
6,B6,inactive: no binding seen
7,B7,inactive: no binding seen
8,B8,inactive: no binding seen
9,B9,inactive: no binding seen
10,B10,inactive: no binding seen
11,B11,inactive: no binding seen
12,B12,inactive: no binding seen
13,B13,inactive: no binding seen
14,B14,inactive: no binding seen
15,B15,inactive: no binding seen
16,B16,inactive: no binding seen
17,B17,inactive: no binding seen
18,B18,inactive: no binding seen
19,B19,inactive: no binding seen
20,B20,inactive: no binding seen
21,B21,inactive: no binding seen
22,B22,inactive: no binding seen
23,B23,inactive: no binding seen
24,B24,inactive: no binding seen

# 2 entries from above, with tabs.
row	Binder	apparent Kd
4	B4	inactive: no binding seen
5	B5	inactive: no binding seen
